The assay has as its target GLP-1R-SmBiT (UniProt P43220). Briefly: split reporter.

The chains behind the UniProt entries cited, without tags or fusion partners. Residues count along the entry.
UniProt P43220, residues 24-463: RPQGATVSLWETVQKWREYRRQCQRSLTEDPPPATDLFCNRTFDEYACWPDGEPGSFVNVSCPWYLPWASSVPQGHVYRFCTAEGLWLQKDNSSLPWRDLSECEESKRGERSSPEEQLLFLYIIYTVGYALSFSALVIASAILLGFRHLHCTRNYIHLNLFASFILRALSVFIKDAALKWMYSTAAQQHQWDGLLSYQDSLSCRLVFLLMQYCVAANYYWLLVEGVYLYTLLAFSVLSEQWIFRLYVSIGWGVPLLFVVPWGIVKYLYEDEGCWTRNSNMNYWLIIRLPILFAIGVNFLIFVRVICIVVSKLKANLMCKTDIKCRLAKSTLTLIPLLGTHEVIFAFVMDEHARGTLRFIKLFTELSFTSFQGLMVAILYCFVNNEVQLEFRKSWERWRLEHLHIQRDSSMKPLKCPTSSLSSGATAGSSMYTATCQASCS
UniProt P32121: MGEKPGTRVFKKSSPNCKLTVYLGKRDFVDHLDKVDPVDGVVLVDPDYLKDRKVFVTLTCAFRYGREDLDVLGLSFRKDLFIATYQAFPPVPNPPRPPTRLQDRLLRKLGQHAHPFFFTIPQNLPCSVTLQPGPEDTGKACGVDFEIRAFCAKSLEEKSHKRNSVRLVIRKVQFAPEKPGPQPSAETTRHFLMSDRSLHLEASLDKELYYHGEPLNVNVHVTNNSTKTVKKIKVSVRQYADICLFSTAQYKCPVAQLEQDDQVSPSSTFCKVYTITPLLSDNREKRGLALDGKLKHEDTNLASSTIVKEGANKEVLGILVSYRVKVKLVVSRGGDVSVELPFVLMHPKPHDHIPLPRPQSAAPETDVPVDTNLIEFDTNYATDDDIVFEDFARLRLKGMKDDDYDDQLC

These are yes or no findings as the source states them, for the method shown. In cells and extracts the contact can be indirect. Some entries that bind do so weakly or less than the wild type.

For “LgBiT-β-arrestin 2 (from UniProt P32121 1-409)”, the binding result was “binds”.

The record behind these values is paper doi:10.1101/2022.08.17.504231.
